Some of the results follow.
Compound: Cc1cc(ccc1-c1ccccc1)C(=O)N1CCCN(CC1)C(=O)CCl [compound 10]
Test: probe-labelled cysteine peptide fold change vs DMSO (competition) (log2 fold change); higher = less target engagement (more negative = stronger competition)
Settings: THP-1, incubation time: 4 h
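Also: competitive profiling in live THP-1 cells: cysteine peptides tagged with an iodoacetamide desthiobiotin (IA-DTB) probe, intensity after compound treatment relative to DMSO-treated cells.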

Amino acid sequences for entries named in this document (tags omitted). A change or cut given only in a name is not applied to a line headed by its entry.
UniProt Q93009, whole entry, looked up: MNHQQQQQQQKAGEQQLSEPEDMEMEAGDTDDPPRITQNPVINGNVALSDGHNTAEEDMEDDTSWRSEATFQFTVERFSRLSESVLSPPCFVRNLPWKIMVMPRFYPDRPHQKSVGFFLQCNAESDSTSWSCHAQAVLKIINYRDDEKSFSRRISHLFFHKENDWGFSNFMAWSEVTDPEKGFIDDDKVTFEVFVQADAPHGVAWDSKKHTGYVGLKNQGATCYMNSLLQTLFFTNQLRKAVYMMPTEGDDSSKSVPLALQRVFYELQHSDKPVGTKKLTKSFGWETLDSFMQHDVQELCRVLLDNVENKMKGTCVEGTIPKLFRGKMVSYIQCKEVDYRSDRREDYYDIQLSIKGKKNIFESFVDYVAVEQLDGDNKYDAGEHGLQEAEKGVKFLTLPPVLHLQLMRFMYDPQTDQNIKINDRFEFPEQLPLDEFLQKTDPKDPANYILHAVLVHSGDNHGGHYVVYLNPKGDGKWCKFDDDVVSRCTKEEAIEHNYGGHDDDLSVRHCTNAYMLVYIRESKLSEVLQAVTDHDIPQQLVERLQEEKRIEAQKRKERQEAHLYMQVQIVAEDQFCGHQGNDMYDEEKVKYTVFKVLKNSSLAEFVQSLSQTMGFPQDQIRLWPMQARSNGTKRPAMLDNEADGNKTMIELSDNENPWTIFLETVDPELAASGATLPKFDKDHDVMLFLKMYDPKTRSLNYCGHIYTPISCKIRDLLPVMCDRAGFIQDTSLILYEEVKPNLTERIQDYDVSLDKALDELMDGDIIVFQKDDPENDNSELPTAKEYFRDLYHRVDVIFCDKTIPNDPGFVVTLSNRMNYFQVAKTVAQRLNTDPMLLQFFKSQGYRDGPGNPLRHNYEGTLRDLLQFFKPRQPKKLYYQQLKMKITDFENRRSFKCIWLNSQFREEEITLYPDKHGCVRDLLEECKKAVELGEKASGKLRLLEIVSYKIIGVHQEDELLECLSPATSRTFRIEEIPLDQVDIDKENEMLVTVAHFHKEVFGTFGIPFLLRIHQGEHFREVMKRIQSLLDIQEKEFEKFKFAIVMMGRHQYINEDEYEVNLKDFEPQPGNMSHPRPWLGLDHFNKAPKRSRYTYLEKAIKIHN
UniProt Q70CQ2: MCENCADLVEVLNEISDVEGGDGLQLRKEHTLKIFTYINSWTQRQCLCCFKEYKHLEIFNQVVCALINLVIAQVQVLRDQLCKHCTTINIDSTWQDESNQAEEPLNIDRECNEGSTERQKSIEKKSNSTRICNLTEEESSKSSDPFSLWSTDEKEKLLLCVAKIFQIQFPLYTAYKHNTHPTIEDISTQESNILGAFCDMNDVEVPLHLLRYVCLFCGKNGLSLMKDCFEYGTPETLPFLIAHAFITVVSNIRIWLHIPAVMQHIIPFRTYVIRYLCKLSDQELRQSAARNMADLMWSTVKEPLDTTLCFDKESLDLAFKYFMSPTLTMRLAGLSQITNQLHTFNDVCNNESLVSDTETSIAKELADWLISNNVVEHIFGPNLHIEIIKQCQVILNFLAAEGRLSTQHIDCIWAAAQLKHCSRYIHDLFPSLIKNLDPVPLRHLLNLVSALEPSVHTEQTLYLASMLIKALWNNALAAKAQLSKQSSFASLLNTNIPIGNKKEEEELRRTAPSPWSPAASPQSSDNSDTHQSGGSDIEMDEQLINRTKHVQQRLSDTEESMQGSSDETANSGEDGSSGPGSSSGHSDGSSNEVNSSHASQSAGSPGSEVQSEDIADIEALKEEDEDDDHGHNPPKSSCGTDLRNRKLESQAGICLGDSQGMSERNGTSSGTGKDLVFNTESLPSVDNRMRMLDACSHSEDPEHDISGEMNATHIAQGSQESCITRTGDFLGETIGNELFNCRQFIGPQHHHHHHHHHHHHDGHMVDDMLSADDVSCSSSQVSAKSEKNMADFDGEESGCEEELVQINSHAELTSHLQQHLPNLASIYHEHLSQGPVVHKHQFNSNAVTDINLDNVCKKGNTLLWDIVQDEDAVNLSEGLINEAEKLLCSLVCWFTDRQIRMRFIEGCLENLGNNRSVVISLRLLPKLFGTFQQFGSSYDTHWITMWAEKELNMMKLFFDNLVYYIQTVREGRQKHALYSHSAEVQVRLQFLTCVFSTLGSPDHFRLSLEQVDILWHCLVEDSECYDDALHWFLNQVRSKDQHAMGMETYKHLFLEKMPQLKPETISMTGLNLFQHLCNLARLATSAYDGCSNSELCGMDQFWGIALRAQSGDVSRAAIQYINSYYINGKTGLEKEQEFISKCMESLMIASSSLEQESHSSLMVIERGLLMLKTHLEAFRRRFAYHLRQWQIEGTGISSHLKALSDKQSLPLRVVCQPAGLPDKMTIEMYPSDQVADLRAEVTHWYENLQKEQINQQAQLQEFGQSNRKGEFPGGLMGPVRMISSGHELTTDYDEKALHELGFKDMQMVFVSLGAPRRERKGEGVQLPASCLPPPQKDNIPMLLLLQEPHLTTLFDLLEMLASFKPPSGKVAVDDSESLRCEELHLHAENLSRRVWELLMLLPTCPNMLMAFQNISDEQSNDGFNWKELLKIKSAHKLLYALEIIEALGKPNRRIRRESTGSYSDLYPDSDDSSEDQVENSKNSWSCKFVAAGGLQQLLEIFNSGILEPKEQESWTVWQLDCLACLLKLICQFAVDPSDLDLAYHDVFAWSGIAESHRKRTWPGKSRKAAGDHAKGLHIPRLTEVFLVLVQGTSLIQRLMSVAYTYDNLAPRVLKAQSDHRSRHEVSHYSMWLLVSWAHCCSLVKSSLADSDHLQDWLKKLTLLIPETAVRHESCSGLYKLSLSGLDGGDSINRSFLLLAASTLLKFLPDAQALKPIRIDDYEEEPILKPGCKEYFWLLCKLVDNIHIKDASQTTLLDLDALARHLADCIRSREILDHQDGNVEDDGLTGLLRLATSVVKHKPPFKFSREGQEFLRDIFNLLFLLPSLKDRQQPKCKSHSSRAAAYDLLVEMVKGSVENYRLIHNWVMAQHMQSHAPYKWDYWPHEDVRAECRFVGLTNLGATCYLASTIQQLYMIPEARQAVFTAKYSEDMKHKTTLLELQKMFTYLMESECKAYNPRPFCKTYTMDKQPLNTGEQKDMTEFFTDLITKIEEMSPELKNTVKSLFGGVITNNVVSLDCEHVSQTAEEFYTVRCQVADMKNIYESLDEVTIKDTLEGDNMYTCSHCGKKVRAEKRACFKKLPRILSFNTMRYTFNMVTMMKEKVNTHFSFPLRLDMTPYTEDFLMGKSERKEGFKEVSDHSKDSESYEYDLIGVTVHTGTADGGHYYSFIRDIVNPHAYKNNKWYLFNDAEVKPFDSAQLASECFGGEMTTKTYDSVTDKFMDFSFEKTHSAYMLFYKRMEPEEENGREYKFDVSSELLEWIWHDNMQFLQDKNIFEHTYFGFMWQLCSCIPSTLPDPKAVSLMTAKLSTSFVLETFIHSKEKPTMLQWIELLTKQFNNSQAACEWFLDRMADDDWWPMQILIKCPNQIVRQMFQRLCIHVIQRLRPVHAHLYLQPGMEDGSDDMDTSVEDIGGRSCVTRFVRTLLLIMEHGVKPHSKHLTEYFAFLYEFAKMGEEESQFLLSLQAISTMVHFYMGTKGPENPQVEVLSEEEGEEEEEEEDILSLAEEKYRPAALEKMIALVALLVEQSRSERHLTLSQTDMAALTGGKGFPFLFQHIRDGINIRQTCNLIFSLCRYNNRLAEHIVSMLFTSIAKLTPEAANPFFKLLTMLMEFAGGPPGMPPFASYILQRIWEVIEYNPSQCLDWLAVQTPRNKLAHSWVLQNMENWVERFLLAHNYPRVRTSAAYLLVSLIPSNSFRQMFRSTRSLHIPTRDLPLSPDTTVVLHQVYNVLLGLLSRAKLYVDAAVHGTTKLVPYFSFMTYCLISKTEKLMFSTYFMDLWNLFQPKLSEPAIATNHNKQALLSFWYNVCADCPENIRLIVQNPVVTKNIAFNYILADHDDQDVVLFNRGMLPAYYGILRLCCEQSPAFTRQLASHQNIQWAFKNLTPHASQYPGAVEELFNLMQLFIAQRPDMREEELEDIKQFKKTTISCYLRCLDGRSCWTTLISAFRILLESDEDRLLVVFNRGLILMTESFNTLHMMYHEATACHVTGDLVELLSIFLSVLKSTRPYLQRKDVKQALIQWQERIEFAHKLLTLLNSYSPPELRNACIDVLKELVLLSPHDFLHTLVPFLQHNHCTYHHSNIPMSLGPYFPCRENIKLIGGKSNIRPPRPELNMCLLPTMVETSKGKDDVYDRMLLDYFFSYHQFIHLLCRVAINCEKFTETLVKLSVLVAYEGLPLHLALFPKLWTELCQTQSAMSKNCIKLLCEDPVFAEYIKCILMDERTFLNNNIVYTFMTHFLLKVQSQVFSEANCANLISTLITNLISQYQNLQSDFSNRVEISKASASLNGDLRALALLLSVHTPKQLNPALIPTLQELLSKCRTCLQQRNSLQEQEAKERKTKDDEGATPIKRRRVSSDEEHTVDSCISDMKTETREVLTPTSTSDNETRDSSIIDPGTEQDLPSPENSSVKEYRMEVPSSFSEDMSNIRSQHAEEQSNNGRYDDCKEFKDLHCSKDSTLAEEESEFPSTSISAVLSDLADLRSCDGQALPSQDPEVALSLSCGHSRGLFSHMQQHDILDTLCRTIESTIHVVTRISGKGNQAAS
UniProt Q9HAU5: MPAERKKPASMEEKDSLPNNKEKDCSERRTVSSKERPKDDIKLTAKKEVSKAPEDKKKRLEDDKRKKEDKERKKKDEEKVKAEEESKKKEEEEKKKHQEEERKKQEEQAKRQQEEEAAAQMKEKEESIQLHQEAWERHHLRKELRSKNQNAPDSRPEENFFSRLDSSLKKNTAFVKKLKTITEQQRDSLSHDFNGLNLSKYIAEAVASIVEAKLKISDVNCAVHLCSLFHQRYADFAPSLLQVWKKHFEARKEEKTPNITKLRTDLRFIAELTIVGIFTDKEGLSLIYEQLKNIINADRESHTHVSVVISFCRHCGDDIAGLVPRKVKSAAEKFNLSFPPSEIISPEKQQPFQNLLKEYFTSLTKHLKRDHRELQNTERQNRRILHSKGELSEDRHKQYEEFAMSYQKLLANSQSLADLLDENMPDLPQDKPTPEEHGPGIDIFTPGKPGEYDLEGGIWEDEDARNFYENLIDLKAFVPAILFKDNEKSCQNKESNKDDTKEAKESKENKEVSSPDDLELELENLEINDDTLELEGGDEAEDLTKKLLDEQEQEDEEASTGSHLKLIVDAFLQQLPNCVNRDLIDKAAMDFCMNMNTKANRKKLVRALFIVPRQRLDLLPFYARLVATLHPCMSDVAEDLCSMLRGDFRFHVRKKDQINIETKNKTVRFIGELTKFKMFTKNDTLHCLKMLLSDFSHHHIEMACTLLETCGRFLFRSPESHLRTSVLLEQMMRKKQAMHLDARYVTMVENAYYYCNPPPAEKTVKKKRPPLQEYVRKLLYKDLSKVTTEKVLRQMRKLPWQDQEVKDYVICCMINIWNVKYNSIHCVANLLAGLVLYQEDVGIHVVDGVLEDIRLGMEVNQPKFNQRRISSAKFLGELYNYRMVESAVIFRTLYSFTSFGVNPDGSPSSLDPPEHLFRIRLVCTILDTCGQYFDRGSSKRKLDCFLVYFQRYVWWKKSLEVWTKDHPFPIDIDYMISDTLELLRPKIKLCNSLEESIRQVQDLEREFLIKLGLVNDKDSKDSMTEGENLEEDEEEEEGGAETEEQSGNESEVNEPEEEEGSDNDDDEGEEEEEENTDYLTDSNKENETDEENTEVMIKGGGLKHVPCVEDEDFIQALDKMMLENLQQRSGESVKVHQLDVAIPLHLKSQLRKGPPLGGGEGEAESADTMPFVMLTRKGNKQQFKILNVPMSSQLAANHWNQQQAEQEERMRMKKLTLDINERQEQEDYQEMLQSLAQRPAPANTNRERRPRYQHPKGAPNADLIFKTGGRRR
UniProt Q9BZX2: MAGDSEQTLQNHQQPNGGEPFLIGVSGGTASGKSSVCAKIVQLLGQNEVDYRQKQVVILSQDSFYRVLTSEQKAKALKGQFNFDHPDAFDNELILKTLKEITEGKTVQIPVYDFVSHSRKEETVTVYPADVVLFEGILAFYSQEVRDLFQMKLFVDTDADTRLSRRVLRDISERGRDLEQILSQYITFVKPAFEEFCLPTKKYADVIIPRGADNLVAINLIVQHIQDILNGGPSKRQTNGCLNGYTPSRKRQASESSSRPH
UniProt P10746: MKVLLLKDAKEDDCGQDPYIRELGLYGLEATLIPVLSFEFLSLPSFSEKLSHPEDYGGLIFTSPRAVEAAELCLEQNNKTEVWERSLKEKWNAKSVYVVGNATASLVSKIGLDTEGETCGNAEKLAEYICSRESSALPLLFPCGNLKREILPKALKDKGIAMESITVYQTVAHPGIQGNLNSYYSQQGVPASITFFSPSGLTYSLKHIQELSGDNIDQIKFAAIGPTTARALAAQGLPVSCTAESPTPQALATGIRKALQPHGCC

| Target | probe-labelled cysteine peptide fold change (10 µM) | probe-labelled cysteine peptide fold change (50 µM) |
| --- | --- | --- |
| USP7_Q93009_925_DLLEECK (UniProt Q93009) | 0.13 | 0.3 |
| UNG_P13051_141_HYTVYPPPHQVFTWTQMCDIK (UniProt P13051) | -0.00721 | 0.124 |
| USF1_P22415_248_ACDYIQELR (UniProt P22415) | -0.0972 | 0.00562 |
| USP48_Q86UV5_652+658_KEEEELNFNEDILCPHGELCISENERR (UniProt Q86UV5) | -0.493 | -1.42 |
| UGGT1_Q9NYU2_1386_DFNLDGAPYGYTPFCDSRR (UniProt Q9NYU2) | -0.155 | -0.102 |
| URB1_O60287_563_AVLLQVICLYQK (UniProt O60287) | 0.022 | 0.0828 |
| USP8_P40818_50_TAEECR (UniProt P40818) | 0.284 | 0.395 |
| UFC1_Q9Y3C8_116_ICLTDHFKPLWAR (UniProt Q9Y3C8) | -0.183 | -1.26 |
| USP24_Q9UPU5_802_TFFENVNLCDHR (UniProt Q9UPU5) | -0.223 | 0.0212 |
| UNC13D_Q70J99_255_CREDQWYPLEPR (UniProt Q70J99) | -0.287 | -0.465 |
| UHRF1_Q96T88_302_SGPSCK (UniProt Q96T88) | 0.0872 | -0.00697 |
| UBXN4_Q92575_186_SDTATGGESAGHATSSQEPSGCSDQRPAEDLNIR (UniProt Q92575) | -0.176 | -0.295 |
| USP13_Q92995_231_ENLWLNLTDGSVLCGK (UniProt Q92995) | 0.0774 | 0.113 |
| UQCRC1_P31930_154_AVELLGDIVQNCSLEDSQIEK (UniProt P31930) | 0.114 | 0.272 |
| USP15_Q9Y4E8_633_ISTETEETEGSLHCCK (UniProt Q9Y4E8) | -0.0182 | -0.248 |
| UHRF2_Q96PU4_42_VWALFDVRPECQR (UniProt Q96PU4) | -0.064 | 0.118 |
| USP34_Q70CQ2_1330_KGEGVQLPASCLPPPQK (UniProt Q70CQ2) | -0.079 | -0.0424 |
| UCHL5_Q9Y5K5_88+100_QVINNACATQAIVSVLLNCTHQDVHLGETLSEFK (UniProt Q9Y5K5) | 0.213 | 0.0364 |
| UHRF1_Q96T88_497_RTAEQSCDQK (UniProt Q96T88) | -0.106 | 0.0439 |

Random excerpt: 2 entries already listed

| Target | probe-labelled cysteine peptide fold change (10 µM) | probe-labelled cysteine peptide fold change (50 µM) |
| --- | --- | --- |
| USP34_Q70CQ2_1330_KGEGVQLPASCLPPPQK (UniProt Q70CQ2) | -0.079 | -0.0424 |
| USP7_Q93009_925_DLLEECK (UniProt Q93009) | 0.13 | 0.3 |

Further entries

| Target | probe-labelled cysteine peptide fold change (10 µM) | probe-labelled cysteine peptide fold change (50 µM) |
| --- | --- | --- |
| UBTF_P17480_33_WSQEDMLTLLECMK (UniProt P17480) | 0.198 | -0.000557 |
| UPF2_Q9HAU5_315_HCGDDIAGLVPR (UniProt Q9HAU5) | -0.266 | 0.113 |
| USP16_Q9Y5T5_726_FPEILDLAPFCTLK (UniProt Q9Y5T5) | -0.0354 | -0.281 |
| USP7_Q93009_721_IRDLLPVMCDR (UniProt Q93009) | 0.0128 | 0.0048 |
| UCK2_Q9BZX2_241_RQTNGCLNGYTPSR (UniProt Q9BZX2) | -0.398 | -0.393 |
| UHRF2_Q96PU4_347_CHSCSCR (UniProt Q96PU4) | 0.165 | 0.27 |
| UPF1_Q92900_237_CFLSWLVK (UniProt Q92900) | -0.00664 | -0.0136 |
| UGGT1_Q9NYU2_1475+1479_SLPQEWLWCETWCDDASK (UniProt Q9NYU2) | -0.291 | -0.0794 |
| UPF2_Q9HAU5_578_LIVDAFLQQLPNCVNR (UniProt Q9HAU5) | -0.0297 | -0.14 |
| USP4_Q13107_624_LTLESLYQAVCDR (UniProt Q13107) | 0.118 | -0.183 |
| UHRF1_Q96T88_727+739_VEETFQCICCQELVFRPITTVCQHNVCK (UniProt Q96T88) | -0.0208 | -0.18 |
| UROS_P10746_73_AVEAAELCLEQNNK (UniProt P10746) | 0.112 | 0.196 |
| UQCRC2_P22695_125_ENMAYTVECLR (UniProt P22695) | 0.0918 | 0.227 |
| UHRF1BP1L_A0JNW5_398_NGWANELLHEFECNVEMLK (UniProt A0JNW5) | -0.0203 | -0.158 |
| UIMC1_Q96RL1_298_VILCQLEVYQK (UniProt Q96RL1) | -0.00784 | 0.0053 |
| UHRF1_Q96T88_744_VEETFQCICCQELVFRPITTVCQHNVCK (UniProt Q96T88) | 0.106 | 0.203 |
| USP40_Q9NVE5_1054_RIEICLEPLQK (UniProt Q9NVE5) | 0.0209 | -0.0411 |
| USP10_Q14694_94_TPSYSISSTLNPQAPEFILGCTASK (UniProt Q14694) | -0.623 | -0.194 |
| USP25_Q9UHP3_551_HITEEELSVLESCLHR (UniProt Q9UHP3) | 0.253 | 0.479 |
